Measured values published in the supplement of paper PMC8728848.
The other results are listed elsewhere or left out.

Legend:
Assay in all cases: glycan array binding signal (z-score within array); higher = stronger binding
Conditions in all cases: glycan notation: IUPAC condensed, linker removed
[1] = target: GalNAc(b1-4)GlcNAc(b1-2)Man(a1-3)[GalNAc(b1-4)GlcNAc(b1-2)Man(a1-6)]Man(b1-4)GlcNAc(b1-4)GlcNAc
Summary of the method: (§1)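 From the Consortium for Functional Glycomics database, 3228 arrays were curated, keeping only those whose protein sequence was available. Binding is given as a within-array Z-score averaged across arrays sharing a protein sequence and across linkers. Negative Z-scores can be read as non-binding.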

[2] = target: GalNAc(b1-4)GlcNAc(b1-3)GalNAc(b1-4)GlcNAc
Summary of the method: as §1

GalNAc(b1-4)GlcNAc6S = target: GalNAc(b1-4)GlcNAc6S
Summary of the method: as §1

GalNAc(b1-6)GalNAc = target: GalNAc(b1-6)GalNAc
Summary of the method: as §1

GalNAc3S(b1-4)GlcNAc = target: GalNAc3S(b1-4)GlcNAc
Summary of the method: as §1

GalNAc3S(b1-4)GlcNAc3S = target: GalNAc3S(b1-4)GlcNAc3S
Summary of the method: as §1

[3] = target: GalNAc3S(b1-4)[Fuc(a1-3)]GlcNAc
Summary of the method: as §1

GalNAc4S6S(b1-4)GlcNAc = target: GalNAc4S6S(b1-4)GlcNAc
Summary of the method: as §1

GalNAc6S(b1-4)GlcNAc = target: GalNAc6S(b1-4)GlcNAc
Summary of the method: as §1

Glc(a1-4)Glc = target: Glc(a1-4)Glc
Summary of the method: as §1

[4] = target: Glc(a1-4)Glc(a1-4)Glc(a1-4)Glc
Summary of the method: as §1

Glc(a1-6)Glc(a1-6)Glc = target: Glc(a1-6)Glc(a1-6)Glc
Summary of the method: as §1

[5] = target: Glc(a1-6)Glc(a1-6)Glc(a1-6)Glc
Summary of the method: as §1

Glc(b1-4)Glc = target: Glc(b1-4)Glc
Summary of the method: as §1

Glc(b1-6)Glc = target: Glc(b1-6)Glc
Summary of the method: as §1

GlcA(b1-3)Gal = target: GlcA(b1-3)Gal
Summary of the method: as §1

GlcA(b1-3)GlcNAc = target: GlcA(b1-3)GlcNAc
Summary of the method: as §1

GlcA(b1-6)Gal = target: GlcA(b1-6)Gal
Summary of the method: as §1

[6] = target: GlcA3S(b1-3)Gal(b1-4)GlcNAc(b1-2)Man
Summary of the method: as §1

[7] = target: GlcA3S(b1-3)Gal(b1-4)GlcNAc(b1-3)Gal(b1-4)Glc
Summary of the method: as §1

[8] = target: GlcNAc(a1-3)Gal(b1-4)GlcNAc
Summary of the method: as §1

[9] = target: GlcNAc(a1-4)Gal(b1-3)GlcNAc
Summary of the method: as §1

[10] = target: GlcNAc(a1-4)Gal(b1-4)GalNAc
Summary of the method: as §1

[11] = target: GlcNAc(a1-4)Gal(b1-4)GlcNAc
Summary of the method: as §1

[12] = target: GlcNAc(a1-4)Gal(b1-4)GlcNAc(b1-3)Gal(b1-4)Glc
Summary of the method: as §1

[13] = target: GlcNAc(a1-4)Gal(b1-4)GlcNAc(b1-3)Gal(b1-4)GlcNAc
Summary of the method: as §1

[14] = target: GlcNAc(a1-4)Gal(b1-4)GlcNAc(b1-3)Gal(b1-4)GlcNAc(b1-3)Gal(b1-4)GlcNAc
Summary of the method: as §1

[15] = target: GlcNAc(a1-4)Gal(b1-4)GlcNAc(b1-3)Gal(b1-4)[Fuc(a1-3)]GlcNAc(b1-3)Gal(b1-4)[Fuc(a1-3)]GlcNAc
Summary of the method: as §1

[16] = target: GlcNAc(a1-6)Gal(b1-4)GlcNAc
Summary of the method: as §1

[17] = target: GlcNAc(b1-2)Gal(b1-3)GalNAc
Summary of the method: as §1

[18] = target: GlcNAc(b1-2)Man(a1-3)[GlcNAc(b1-2)Man(a1-6)]Man(b1-4)GlcNAc(b1-4)GlcNAc
Summary of the method: as §1

[19] = target: GlcNAc(b1-2)Man(a1-3)[GlcNAc(b1-2)Man(a1-6)]Man(b1-4)GlcNAc(b1-4)[Fuc(a1-6)]GlcNAc
Summary of the method: as §1

[20] = target: GlcNAc(b1-2)Man(a1-3)[GlcNAc(b1-4)][GlcNAc(b1-2)Man(a1-6)]Man(b1-4)GlcNAc(b1-4)GlcNAc
Summary of the method: as §1

[21] = target: GlcNAc(b1-2)Man(a1-3)[GlcNAc(b1-4)][GlcNAc(b1-2)Man(a1-6)]Man(b1-4)GlcNAc(b1-4)[Fuc(a1-6)]GlcNAc
Summary of the method: as §1

[22] = target: GlcNAc(b1-2)[GlcNAc(b1-4)]Man(a1-3)[GlcNAc(b1-2)Man(a1-6)]Man(b1-4)GlcNAc(b1-4)GlcNAc
Summary of the method: as §1

[23] = target: GlcNAc(b1-2)[GlcNAc(b1-4)]Man(a1-3)[GlcNAc(b1-4)][GlcNAc(b1-2)Man(a1-6)]Man(b1-4)GlcNAc(b1-4)GlcNAc
Summary of the method: as §1

[24] = target: GlcNAc(b1-2)[GlcNAc(b1-4)]Man(a1-3)[GlcNAc(b1-4)][GlcNAc(b1-2)[GlcNAc(b1-6)]Man(a1-6)]Man(b1-4)GlcNAc(b1-4)GlcNAc
Summary of the method: as §1

[25] = target: GlcNAc(b1-2)[GlcNAc(b1-4)]Man(a1-3)[GlcNAc(b1-4)][GlcNAc(b1-2)[GlcNAc(b1-6)]Man(a1-6)]Man(b1-4)GlcNAc(b1-4)[Fuc(a1-6)]GlcNAc
Summary of the method: as §1

[26] = target: GlcNAc(b1-2)[GlcNAc(b1-6)]Man(a1-6)[GlcNAc(b1-2)Man(a1-3)]Man(b1-4)GlcNAc(b1-4)GlcNAc
Summary of the method: as §1

[27] = target: GlcNAc(b1-2)[GlcNAc(b1-6)]Man(a1-6)[GlcNAc(b1-2)Man(a1-3)]Man(b1-4)GlcNAc(b1-4)[Fuc(a1-6)]GlcNAc
Summary of the method: as §1

[28] = target: GlcNAc(b1-2)[GlcNAc(b1-6)]Man(a1-6)[GlcNAc(b1-4)][GlcNAc(b1-2)Man(a1-3)]Man(b1-4)GlcNAc(b1-4)GlcNAc
Summary of the method: as §1

GlcNAc(b1-3)Fuc = target: GlcNAc(b1-3)Fuc
Summary of the method: as §1

GlcNAc(b1-3)Gal = target: GlcNAc(b1-3)Gal
Summary of the method: as §1

[29] = target: GlcNAc(b1-3)Gal(b1-3)GalNAc
Summary of the method: as §1

GlcNAc(b1-3)Gal(b1-4)Glc = target: GlcNAc(b1-3)Gal(b1-4)Glc
Summary of the method: as §1

B1: HFR-3 (Triticum aestivum) (protein)
chain: MKGLLLCALALAFAAVTTHAQLQSCPTRCGKQADGMECPNNLCCSKDGYCGLGVDYCSAGAGCQSGACYDNKICGAQANGTLCRNNHCCSSGGRCGYGREYCSNGCQGGPCWADLKCGHLDNGKLCPNNLCCSQYGYCGLGPEFCGTGCQNGACSTDKPCGNKANGAPCTNNYCCSQYGSCGLGKDYCGTGCQNGACN
In the case of B1, the “glycan array binding signal (z-score)” value [1] is reported as 0.738, the “glycan array binding signal (z-score)” value [2] is reported as -1.32 and the “glycan array binding signal (z-score)” value (GalNAc(b1-4)GlcNAc6S) is reported as 0.42. For the same binder, the “glycan array binding signal (z-score)” value (GalNAc(b1-6)GalNAc) was -0.596, the “glycan array binding signal (z-score)” value (GalNAc3S(b1-4)GlcNAc) was 0.144 and the “glycan array binding signal (z-score)” value (GalNAc3S(b1-4)GlcNAc3S) was -0.084. For the same binder, the “glycan array binding signal (z-score)” value [3] was -0.973, the “glycan array binding signal (z-score)” value (GalNAc4S6S(b1-4)GlcNAc) was -0.038 and the “glycan array binding signal (z-score)” value (GalNAc6S(b1-4)GlcNAc) was -1.27. The “glycan array binding signal (z-score)” value (Glc(a1-4)Glc) was 0.957, the “glycan array binding signal (z-score)” value [4] was 0.825 and the “glycan array binding signal (z-score)” value (Glc(a1-6)Glc(a1-6)Glc) was 0.923. The “glycan array binding signal (z-score)” value [5] was -0.131, the “glycan array binding signal (z-score)” value (Glc(b1-4)Glc) was 0.435 and the “glycan array binding signal (z-score)” value (Glc(b1-6)Glc) was -0.1. For the same binder, the “glycan array binding signal (z-score)” value (GlcA(b1-3)Gal) was -0.089, the “glycan array binding signal (z-score)” value (GlcA(b1-3)GlcNAc) was 0.799 and the “glycan array binding signal (z-score)” value (GlcA(b1-6)Gal) was -0.641. The “glycan array binding signal (z-score)” value [6] was 0.183, the “glycan array binding signal (z-score)” value [7] was -1.31 and the “glycan array binding signal (z-score)” value [8] was 0.333. For the same binder, the “glycan array binding signal (z-score)” value [9] was 0.841, the “glycan array binding signal (z-score)” value [10] was -0.312 and the “glycan array binding signal (z-score)” value [11] was -0.947. For the same binder, the “glycan array binding signal (z-score)” value [12] was -0.926, the “glycan array binding signal (z-score)” value [13] was 0.598 and the “glycan array binding signal (z-score)” value [14] was -0.395. For the same binder, the “glycan array binding signal (z-score)” value [15] was -0.709, the “glycan array binding signal (z-score)” value [16] was -0.582 and the “glycan array binding signal (z-score)” value [17] was 0.369. For the same binder, the “glycan array binding signal (z-score)” value [18] was -0.126, the “glycan array binding signal (z-score)” value [19] was -0.197 and the “glycan array binding signal (z-score)” value [20] was 0.089. The “glycan array binding signal (z-score)” value [21] was -1.15, the “glycan array binding signal (z-score)” value [22] was -1.68 and the “glycan array binding signal (z-score)” value [23] was -0.038. The “glycan array binding signal (z-score)” value [24] was -0.89, the “glycan array binding signal (z-score)” value [25] was -1.25 and the “glycan array binding signal (z-score)” value [26] was -0.021. For the same binder, the “glycan array binding signal (z-score)” value [27] was -1.95, the “glycan array binding signal (z-score)” value [28] was -0.852 and the “glycan array binding signal (z-score)” value (GlcNAc(b1-3)Fuc) was 0.533. The “glycan array binding signal (z-score)” value (GlcNAc(b1-3)Gal) was -0.25, the “glycan array binding signal (z-score)” value [29] was 1.4 and the “glycan array binding signal (z-score)” value (GlcNAc(b1-3)Gal(b1-4)Glc) was 1.36.
